Source: paper PMC12431657, “Discovery and mechanistic insights of dibenzoylmethane as a broad spectrum inhibitor of coronavirus” (PLOS Pathogens, 2025)
Structures can show the parent of a compound that is named as a salt. Where two headings read alike, the source gives them in different places. Among all 3,300 compounds or so, about 95 (3%) showed an effect of 50% or more. Some of the results follow.

Test system: HCoV-229E
Parameters: species or system Huh-7; HTS, protection from HCoV-229E induced cell death, luminescent cell viability (CellCounting-Lite 2.0), inhibition rate
Details: 24 h post infection, 1 h compound pre-incubation, 10 µM, inhibitor

SMILES | 229E Inhibition rate | 229E Inhibition rate (229E Inhibition rate, 24 h)
O=C(O)Cc1c[nH]c2ccc(O)cc12 [5-Hydroxyindole-3-acetic acid] | 11.8% | 
C[C@@H]1O[C@@H](O[C@H]2[C@H](O)[C@@H](O)[C@H](O[C@H]3CC[C@]4(C)[C@H]5C=C[C@]67OC[C@@]8(CCC(C)(C)C[C@H]86)[C@@H](O)C[C@@]7(C)[C@]5(C)CC[C@H]4C3(C)C)O[C@@H]2CO[C@@H]2O[C@H](CO)[C@@H](O)[C@H](O)[C@H]2O)[C@H](O)[C@H](O)[C@H]1O [Saikosaponin C] | 0% | 
CC(=O)O[C@@H]1C[C@]23C4=CC[C@@]5(C)[C@H](C(=O)O)[C@@](C)([C@H](C)C(C)C)CC[C@]5(C)[C@H]4CC[C@H]2[C@@](C)(COC3O)[C@H]1O[C@@H]1O[C@H](CO)[C@@H](O)[C@H](O)[C@H]1O (stereo partly shown) [Enfumafungin] | 11.3% | 
N[C@@H](CO)C(=O)O [L-Serine] | 11.3% | 
CC(C(=O)O)c1ccccc1 (stereo not shown) [2-Phenylpropionic acid] | 18.5% | 
C[C@@H]1O[C@@H](OC[C@H]2O[C@@H](OCCc3ccc(O)c(O)c3)[C@H](O)[C@@H](O[C@@H]3O[C@@H](C)[C@H](O)[C@@H](O)[C@H]3O)[C@@H]2OC(=O)/C=C/c2ccc(O)c(O)c2)[C@H](O)[C@H](O)[C@H]1O [Poliumoside] | 6.3% | 
O=C(O)Cc1c[nH]c2ccccc12 [3-Indoleacetic acid] | 5.1% | 
CC(=O)O[C@H]1C(=O)[C@@]2(C)[C@H]([C@H](OC(=O)c3ccccc3)[C@]3(O)C[C@H](OC(=O)[C@H](O)[C@@H](NC(=O)c4ccccc4)c4ccccc4)C(C)=C1C3(C)C)[C@]1(OC(C)=O)CO[C@@H]1C[C@@H]2O [Paclitaxel] |  | 31%
CC1=CC(=O)CC(C)(C)C1(O)/C=C/C(C)=C\C(=O)O (racemic) [(±)-Abscisic acid] |  | 8.9%
CC1(C)[C@@H](O[C@H]2O[C@H](C(=O)O)[C@@H](O)[C@H](O)[C@H]2O[C@@H]2O[C@H](C(=O)O)[C@@H](O)[C@H](O)[C@H]2O)CC[C@]2(C)[C@H]3C(=O)C=C4[C@@H]5C[C@@](C)(C(=O)O)CC[C@]5(C)CC[C@@]4(C)[C@]3(C)CC[C@@H]12 [Glycyrrhizic acid] |  | 43%
CCCCCCC/C=C\C(=O)O [(Z)-2-Decenoic acid] | 19.8% | 
O=Cc1ccccc1O[C@@H]1O[C@H](CO)[C@@H](O)[C@H](O)[C@H]1O [Helicin] | 12.3% | 
CCC(C)(C)C(=O)O[C@H]1C[C@@H](C)C=C2C=C[C@H](C)[C@H](CC[C@@H](O)C[C@@H](O)CC(=O)O)[C@H]21 [Simvastatin acid (ammonium)] | 14.1% | 
N[C@H]1[C@H](O[C@H]2[C@H](O)[C@@H](N)[C@H](O[C@H]3[C@H](O)[C@@H](N)[C@H](O[C@@H]([C@H](O)[C@@H](N)C=O)[C@H](O)CO)O[C@@H]3CO)O[C@@H]2CO)O[C@H](CO)[C@@H](O)[C@@H]1O [Chitotetraose (tetrahydrochloride)] | 0% | 
CCCCCC/C=C\CCCCCCCC(=O)O [Palmitoleic acid] | 13% | 
O=C1/C(=C/c2ccc(O)c(O)c2)COc2cc(O)ccc21 [Sappanone A] | 15.6% | 
CC1=CC(=O)C(C(C)C)=CC1=O [Thymoquinone] | 21.8% | 
C[C@H](CC[C@@H](O[C@@H]1O[C@H](CO)[C@@H](O)[C@H](O)[C@H]1O[C@@H]1O[C@H](CO)[C@@H](O)[C@H](O)[C@H]1O)C(C)(C)O)[C@H]1CC[C@@]2(C)[C@H]3CC=C4[C@@H](CC[C@H](O[C@@H]5O[C@H](CO[C@@H]6O[C@H](CO)[C@@H](O)[C@H](O)[C@H]6O)[C@@H](O)[C@H](O)[C@H]5O)C4(C)C)[C@]3(C)[C@H](O)C[C@]12C [Mogroside IV] | 16.7% | 
C[C@@H]1C[C@@H]([C@@H](O)C(C)(C)O)O[C@H]2C[C@@]3(C)C(=C12)C[C@H](O)[C@H]1[C@@]2(C)CCC(=O)C(C)(C)[C@@H]2CC[C@@]13C [Alisol F] | 20.4% | 
CN[C@@H]1[C@H](O)[C@H](NC)[C@H]2O[C@@]3(O)C(=O)C[C@@H](C)O[C@H]3O[C@@H]2[C@H]1O [Spectinomycin (dihydrochloride)] | 21.5% | 
COc1cc(/C=C/C(=O)O[C@H]2[C@H](O)[C@@H](CO)O[C@@]2(CO)O[C@H]2O[C@H](CO)[C@@H](O)[C@H](O)[C@H]2O)ccc1O [Sibiricose A5] | 29.1% | 
O=C1C[C@@H](c2ccc(O)c(O)c2)Oc2cc(O)cc(O)c21 [Eriodictyol] | 25.6% | 
CC(=O)N[C@@H](Cc1cnc[nH]1)C(=O)O [N-Acetyl-L-histidine (monohydrate)] | 8.3% | 
CC(C)CCC[C@@H](C)[C@H]1CC[C@H]2[C@@H]3[C@H](O)C=C4C[C@@H](O)CC[C@]4(C)[C@H]3CC[C@]12C [7α-Hydroxycholesterol] | 17% | 
C[C@H](CCCC(C)(C)O)[C@H]1CC[C@H]2[C@@H]3CC=C4C[C@@H](O)CC[C@]4(C)[C@H]3CC[C@]12C [25-Hydroxycholesterol] | 3.1% | 

SMILES | 229E Inhibition rate | 229E Inhibition rate (229E Inhibition rate, 24 h)
C[C@H](CCC(=O)NCCS(=O)(=O)O)[C@H]1CC[C@H]2[C@@H]3C[C@H](O)[C@@H]4C[C@H](O)CC[C@]4(C)[C@H]3CC[C@]12C [Taurohyodeoxycholic acid] | 21.5% | 
CC(=O)OC/C=C(\C)CCC=C(C)C [Geranyl acetate] | 33.5% | 
COC(=O)C1=CO[C@@H](O[C@@H]2O[C@H](CO)[C@@H](O)[C@H](O)[C@H]2O)[C@@H]2C(CO)=CC[C@H]12 [Geniposide] | 0% | 
C=C(C)[C@@H](O)COc1c2ccoc2cc2oc(=O)ccc12 [Pangelin] | 11.6% | 
OC[C@H]1NC[C@H](O)[C@@H](O)[C@@H]1O [1-Deoxynojirimycin] | 8.1% | 
O=C(O)c1cn[nH]c1 [4-Carboxypyrazole] | 6.1% | 
CC1=CCC(=O)O1 [α-Angelica lactone] | 8.5% | 
COc1ccc(C(C)=O)c(O[C@@H]2O[C@H](CO[C@@H]3OC[C@H](O)[C@H](O)[C@H]3O)[C@@H](O)[C@H](O)[C@H]2O)c1 [Apiopaeonoside] | 0% | 
CC1(C)O[C@H]2CC(=O)OC[C@]23[C@H]2CC[C@@]4(C)[C@H](c5ccoc5)OC(=O)[C@H]5O[C@]54[C@]2(C)C(=O)C[C@@H]13 [Limonin] | 42.8% | 
C[C@@H]1O[C@@H](O[C@@H]2C(=O)c3c(O)cc(O)cc3O[C@@H]2c2ccc(O)c(O)c2)[C@H](O)[C@H](O)[C@H]1O [Isoastilbin] | 5.5% | 
CC1=C(C(=O)Nc2ccccc2)SCCO1 [Carboxin] | 16.7% | 
O=c1ccoc2cc(O)ccc12 [7-Hydroxy-4H-chromen-4-one] | 10.9% | 
C=C1C[C@@]23CC[C@H]4[C@@](C)(CCC[C@@]4(C)C(=O)O[C@@H]4O[C@H](CO)[C@@H](O)[C@H](O[C@@H]5O[C@H](CO)[C@@H](O)[C@H](O)[C@H]5O)[C@H]4O[C@@H]4O[C@H](CO)[C@@H](O)[C@H](O)[C@H]4O)[C@@H]2CC[C@]1(O[C@@H]1O[C@H](CO)[C@@H](O)[C@H](O[C@@H]2O[C@H](CO)[C@@H](O)[C@H](O)[C@H]2O)[C@H]1O[C@@H]1O[C@H](CO)[C@@H](O)[C@H](O)[C@H]1O)C3 [Rebaudioside M] | 19.5% | 
CC(C)=CCC[C@](C)(O[C@@H]1O[C@H](CO[C@@H]2OC[C@H](O)[C@H](O)[C@H]2O)[C@@H](O)[C@H](O)[C@H]1O)[C@H]1CC[C@]2(C)[C@@H]1[C@H](O)C[C@@H]1[C@@]3(C)CC[C@H](O)C(C)(C)[C@@H]3[C@@H](O)C[C@]12C [Ginsenoside F3] | 11.2% | 
COc1ccc(O)cc1 [Mequinol] | 18.7% | 
CCCCCCCCCCCCCCCCCCCCCCO [1-Docosanol] | 13.6% | 
CN1c2ccccc2C(=O)N2CCc3c([nH]c4ccccc34)[C@@H]21 [Evodiamine] | 40.6% | 
COc1ccc(-c2cc(=O)c3c(O)cc(O[C@@H]4O[C@H](CO)[C@@H](O)[C@H](O)[C@H]4O)cc3o2)cc1O [Diosmetin-7-O-β-D-glucopyranoside] | 37.1% | 
CC(C)CCC[C@@H](C)[C@H]1CC[C@H]2[C@@H]3CC(=O)[C@H]4C[C@@H](O)CC[C@]4(C)[C@H]3CC[C@]12C [6-Ketocholestanol] | 0% | 
C[C@@H]1CC[C@@]2(OC1)O[C@H]1C[C@H]3[C@@H]4CC=C5C[C@@H](O[C@@H]6O[C@H](CO)[C@@H](O)[C@H](O)[C@H]6O[C@@H]6O[C@@H](C)[C@H](O)[C@@H](O)[C@H]6O)CC[C@]5(C)[C@H]4CC[C@]3(C)[C@H]1[C@@H]2C [Prosapogenin A] | 5.8% | 
COc1ccc2c(c1OC)CN(C)CCc1cc3c(cc1C(=O)C2)OCO3 [Allocryptopine] | 8.9% | 
CC(C)C[C@H](NC(=O)[C@@H](O)[C@H](N)Cc1ccccc1)C(=O)O [Bestatin] |  | 20.4%
Cc1ncc(C[n+]2csc(CCO)c2C)c(N)n1 [Thiamine (hydrochloride)] |  | 9.3%
O=C1c2c(O)cccc2C([C@@H]2O[C@H](CO)[C@@H](O)[C@H](O)[C@H]2O)c2cc(CO)cc(O)c21 (stereo partly shown) [Aloin] | 0% | 

Entries shown so far that contain four or more nitrogen atoms, in the order listed:
SMILES | 229E Inhibition rate | 229E Inhibition rate (229E Inhibition rate, 24 h)
N[C@H]1[C@H](O[C@H]2[C@H](O)[C@@H](N)[C@H](O[C@H]3[C@H](O)[C@@H](N)[C@H](O[C@@H]([C@H](O)[C@@H](N)C=O)[C@H](O)CO)O[C@@H]3CO)O[C@@H]2CO)O[C@H](CO)[C@@H](O)[C@@H]1O [Chitotetraose (tetrahydrochloride)] | 0% | 
Cc1ncc(C[n+]2csc(CCO)c2C)c(N)n1 [Thiamine (hydrochloride)] |  | 9.3%
